{"source": "patent US7338977B2", "about": "“Anti-viral compounds” (Aids Care Pharma Limited, priority 2003, dated 2008)", "target": "T1, viral envelope protein gp120 interaction with the cellular receptor protein CD4 (Human immunodeficiency virus type 1 group M subtype B, UniProt P04578)", "T1 construct": "viral envelope protein gp120", "assay_type": "binding, HIV", "details": "summary of Table 1, both tests", "protocol": "Two tests were performed: Test 1 was performed using infected blood, while Test 2 used cell cultures.\nAll stocks solutions were made 25 mM in distilled water and tested at same concentrations.\nThe procedure was carried out as follows: • 1 Plastic plates were coated with cellular receptor protein CD4. • 2 The plates were washed well before adding a predetermined, appropriate quantity of viral envelope protein gp120 for binding to CD4. • 3 To see inhibition by compounds, different concentrations were added a few minutes before adding gp120. • 4 The mixture was incubated at 37° C. for binding. • 5 The plates were then flashed well and bound gp120 was detected by reaction with anti-HIV antibodies, incubated for 12 hours at 4° C. • 6 The amount of antibody bound was detected by adding anti-Human antibodies attached to an enzyme horse raddish peroxidase. • 7 After another incubation and wash, the quantity of the enzyme was measured by adding substrate o-phenyl diamine (OPD). • 8 The colour developed was read at 492 nm. • 9 All incubations took three days for adding different reagents. The percentage of inhibition by compounds, was calculated from the standard curve obtained by using different dilutions of gp120 alone. Test 2", "note": "At least one compound was matched to its structure with a doubt left."}
{"compound": "O=C(O)COc1c(O)c2cc(c1O)C(c1ccc(F)cc1)c1cc(c(O)c(OCC(=O)O)c1O)C(c1ccc(F)cc1)c1cc(c(O)c(OCC(=O)O)c1O)C(c1ccc(F)cc1)c1cc(c(O)c(OCC(=O)O)c1O)C2c1ccc(F)cc1", "note": "(stereo not shown) [BC130202A]", "values": [{"measurement": "activity in words, compared with AC-1", "value": "slightly less active than the compound AC-1"}]}
